This is one part of the list. The data scatter; read single values as rough.

Chains of the proteins cited; added tags and fusions are not shown. Lines headed by an entry give the natural chain unless they say otherwise; changes in a name come on top.
UniProt Q9P0J1: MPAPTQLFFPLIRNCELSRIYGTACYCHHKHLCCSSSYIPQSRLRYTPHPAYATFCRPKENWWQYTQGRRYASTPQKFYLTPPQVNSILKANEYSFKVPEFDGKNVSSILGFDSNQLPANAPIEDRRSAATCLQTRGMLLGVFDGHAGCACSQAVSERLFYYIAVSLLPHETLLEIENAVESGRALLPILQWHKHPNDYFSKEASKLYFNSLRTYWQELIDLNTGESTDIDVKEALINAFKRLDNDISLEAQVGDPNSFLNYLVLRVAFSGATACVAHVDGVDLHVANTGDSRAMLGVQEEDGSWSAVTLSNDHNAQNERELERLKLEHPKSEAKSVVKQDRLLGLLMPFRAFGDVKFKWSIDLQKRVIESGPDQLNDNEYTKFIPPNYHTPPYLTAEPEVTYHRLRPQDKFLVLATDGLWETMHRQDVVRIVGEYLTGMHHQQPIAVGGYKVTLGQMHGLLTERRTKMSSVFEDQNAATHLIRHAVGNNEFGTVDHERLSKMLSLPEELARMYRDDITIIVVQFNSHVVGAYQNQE
UniProt Q96QT6: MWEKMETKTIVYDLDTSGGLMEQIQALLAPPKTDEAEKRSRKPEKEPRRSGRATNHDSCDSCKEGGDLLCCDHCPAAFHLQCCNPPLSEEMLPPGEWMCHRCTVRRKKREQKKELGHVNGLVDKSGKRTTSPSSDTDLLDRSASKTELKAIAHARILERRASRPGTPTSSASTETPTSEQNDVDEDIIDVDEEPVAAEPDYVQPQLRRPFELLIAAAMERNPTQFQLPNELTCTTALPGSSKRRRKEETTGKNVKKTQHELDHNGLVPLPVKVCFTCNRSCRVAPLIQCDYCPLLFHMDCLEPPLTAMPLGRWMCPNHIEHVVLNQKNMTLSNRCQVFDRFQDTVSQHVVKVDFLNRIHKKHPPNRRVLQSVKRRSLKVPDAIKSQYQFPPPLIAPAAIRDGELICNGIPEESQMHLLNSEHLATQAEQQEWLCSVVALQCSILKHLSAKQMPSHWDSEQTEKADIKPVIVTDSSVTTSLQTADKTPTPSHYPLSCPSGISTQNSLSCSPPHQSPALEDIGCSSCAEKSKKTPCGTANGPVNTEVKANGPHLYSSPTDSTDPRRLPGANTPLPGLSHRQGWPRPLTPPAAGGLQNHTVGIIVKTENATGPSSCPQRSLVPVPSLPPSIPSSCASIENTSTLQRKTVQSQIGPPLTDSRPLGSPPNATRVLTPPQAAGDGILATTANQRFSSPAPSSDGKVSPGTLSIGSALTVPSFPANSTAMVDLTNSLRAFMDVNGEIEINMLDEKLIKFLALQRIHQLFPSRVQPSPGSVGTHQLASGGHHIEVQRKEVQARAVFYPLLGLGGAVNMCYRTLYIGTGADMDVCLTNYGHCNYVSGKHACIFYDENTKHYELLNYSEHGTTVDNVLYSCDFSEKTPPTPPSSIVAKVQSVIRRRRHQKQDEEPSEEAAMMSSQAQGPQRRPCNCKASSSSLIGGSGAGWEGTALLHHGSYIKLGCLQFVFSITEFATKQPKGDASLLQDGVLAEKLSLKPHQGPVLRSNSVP
UniProt Q504Q3: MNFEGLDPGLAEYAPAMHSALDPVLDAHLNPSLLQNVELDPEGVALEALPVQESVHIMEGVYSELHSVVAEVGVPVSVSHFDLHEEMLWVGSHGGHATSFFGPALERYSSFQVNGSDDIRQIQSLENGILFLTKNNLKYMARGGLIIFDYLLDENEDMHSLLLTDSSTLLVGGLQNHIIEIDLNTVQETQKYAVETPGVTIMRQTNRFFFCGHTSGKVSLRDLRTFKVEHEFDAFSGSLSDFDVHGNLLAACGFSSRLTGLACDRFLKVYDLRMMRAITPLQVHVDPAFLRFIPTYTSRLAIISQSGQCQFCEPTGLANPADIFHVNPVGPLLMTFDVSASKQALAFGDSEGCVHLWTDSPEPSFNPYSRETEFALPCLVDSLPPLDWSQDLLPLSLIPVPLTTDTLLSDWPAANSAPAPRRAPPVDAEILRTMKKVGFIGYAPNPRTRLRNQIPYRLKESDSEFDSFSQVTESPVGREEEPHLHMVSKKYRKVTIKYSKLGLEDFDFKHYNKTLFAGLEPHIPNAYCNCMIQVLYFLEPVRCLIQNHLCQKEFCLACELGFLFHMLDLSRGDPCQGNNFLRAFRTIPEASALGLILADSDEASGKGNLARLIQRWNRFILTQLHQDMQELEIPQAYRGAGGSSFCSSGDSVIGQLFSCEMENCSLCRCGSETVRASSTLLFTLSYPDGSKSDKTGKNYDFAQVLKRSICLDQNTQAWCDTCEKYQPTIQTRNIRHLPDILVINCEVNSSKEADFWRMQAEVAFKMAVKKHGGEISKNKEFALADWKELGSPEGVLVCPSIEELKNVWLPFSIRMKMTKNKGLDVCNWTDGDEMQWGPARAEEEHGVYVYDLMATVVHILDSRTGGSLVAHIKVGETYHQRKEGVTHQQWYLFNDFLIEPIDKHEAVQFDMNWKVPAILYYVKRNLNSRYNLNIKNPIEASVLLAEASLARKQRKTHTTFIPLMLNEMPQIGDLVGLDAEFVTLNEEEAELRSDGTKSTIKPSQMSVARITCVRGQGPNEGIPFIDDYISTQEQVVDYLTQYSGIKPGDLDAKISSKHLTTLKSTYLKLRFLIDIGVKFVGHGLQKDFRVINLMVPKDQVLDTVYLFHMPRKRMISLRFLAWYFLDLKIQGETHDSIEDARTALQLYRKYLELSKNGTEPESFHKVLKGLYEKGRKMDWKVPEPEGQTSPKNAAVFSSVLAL
UniProt Q86W56: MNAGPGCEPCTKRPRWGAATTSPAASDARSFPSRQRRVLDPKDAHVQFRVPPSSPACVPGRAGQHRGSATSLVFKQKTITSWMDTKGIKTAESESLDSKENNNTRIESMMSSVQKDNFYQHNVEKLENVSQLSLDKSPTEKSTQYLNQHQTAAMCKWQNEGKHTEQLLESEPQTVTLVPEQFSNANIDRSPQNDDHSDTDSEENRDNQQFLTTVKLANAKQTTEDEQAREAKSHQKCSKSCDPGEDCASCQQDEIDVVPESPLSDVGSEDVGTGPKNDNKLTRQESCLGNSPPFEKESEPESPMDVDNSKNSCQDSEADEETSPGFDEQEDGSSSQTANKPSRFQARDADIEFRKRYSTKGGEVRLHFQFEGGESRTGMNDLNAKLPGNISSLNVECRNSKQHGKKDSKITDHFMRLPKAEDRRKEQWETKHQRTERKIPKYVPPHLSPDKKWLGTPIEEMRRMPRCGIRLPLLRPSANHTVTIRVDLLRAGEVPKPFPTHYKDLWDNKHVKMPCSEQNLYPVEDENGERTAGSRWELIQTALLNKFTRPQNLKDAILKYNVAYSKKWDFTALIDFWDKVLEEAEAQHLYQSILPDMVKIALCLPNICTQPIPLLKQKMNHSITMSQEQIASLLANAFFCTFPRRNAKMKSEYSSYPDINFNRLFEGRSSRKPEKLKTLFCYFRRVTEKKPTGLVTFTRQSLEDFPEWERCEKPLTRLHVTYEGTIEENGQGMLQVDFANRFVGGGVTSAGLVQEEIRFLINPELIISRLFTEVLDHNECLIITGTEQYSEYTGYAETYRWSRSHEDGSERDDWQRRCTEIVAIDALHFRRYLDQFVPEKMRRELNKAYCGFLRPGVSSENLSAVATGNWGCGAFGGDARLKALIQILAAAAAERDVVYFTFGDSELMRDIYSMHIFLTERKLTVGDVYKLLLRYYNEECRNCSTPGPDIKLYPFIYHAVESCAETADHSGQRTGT
UniProt Q9Y5B6: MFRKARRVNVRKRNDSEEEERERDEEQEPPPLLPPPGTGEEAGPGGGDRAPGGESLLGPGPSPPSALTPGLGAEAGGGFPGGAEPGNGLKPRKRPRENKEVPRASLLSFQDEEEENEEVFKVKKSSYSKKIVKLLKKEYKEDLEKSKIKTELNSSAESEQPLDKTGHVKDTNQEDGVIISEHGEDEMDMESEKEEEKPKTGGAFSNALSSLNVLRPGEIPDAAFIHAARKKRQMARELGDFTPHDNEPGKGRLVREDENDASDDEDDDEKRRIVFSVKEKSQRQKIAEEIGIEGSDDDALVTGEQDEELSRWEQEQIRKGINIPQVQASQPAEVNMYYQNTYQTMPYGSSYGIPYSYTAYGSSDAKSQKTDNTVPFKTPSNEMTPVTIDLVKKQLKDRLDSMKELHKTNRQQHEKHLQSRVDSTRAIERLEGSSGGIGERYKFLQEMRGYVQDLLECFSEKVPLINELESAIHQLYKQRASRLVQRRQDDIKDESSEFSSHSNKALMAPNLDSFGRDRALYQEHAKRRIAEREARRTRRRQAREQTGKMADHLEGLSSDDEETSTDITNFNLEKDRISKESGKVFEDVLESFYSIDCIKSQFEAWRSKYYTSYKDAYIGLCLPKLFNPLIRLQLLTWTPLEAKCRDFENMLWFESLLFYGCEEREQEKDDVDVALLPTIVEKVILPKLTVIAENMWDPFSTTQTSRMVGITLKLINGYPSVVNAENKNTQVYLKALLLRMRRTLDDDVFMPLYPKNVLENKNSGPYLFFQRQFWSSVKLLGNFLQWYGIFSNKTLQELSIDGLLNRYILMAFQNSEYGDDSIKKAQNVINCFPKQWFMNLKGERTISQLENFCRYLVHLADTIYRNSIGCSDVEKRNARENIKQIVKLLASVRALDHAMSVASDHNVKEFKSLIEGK
UniProt O96013: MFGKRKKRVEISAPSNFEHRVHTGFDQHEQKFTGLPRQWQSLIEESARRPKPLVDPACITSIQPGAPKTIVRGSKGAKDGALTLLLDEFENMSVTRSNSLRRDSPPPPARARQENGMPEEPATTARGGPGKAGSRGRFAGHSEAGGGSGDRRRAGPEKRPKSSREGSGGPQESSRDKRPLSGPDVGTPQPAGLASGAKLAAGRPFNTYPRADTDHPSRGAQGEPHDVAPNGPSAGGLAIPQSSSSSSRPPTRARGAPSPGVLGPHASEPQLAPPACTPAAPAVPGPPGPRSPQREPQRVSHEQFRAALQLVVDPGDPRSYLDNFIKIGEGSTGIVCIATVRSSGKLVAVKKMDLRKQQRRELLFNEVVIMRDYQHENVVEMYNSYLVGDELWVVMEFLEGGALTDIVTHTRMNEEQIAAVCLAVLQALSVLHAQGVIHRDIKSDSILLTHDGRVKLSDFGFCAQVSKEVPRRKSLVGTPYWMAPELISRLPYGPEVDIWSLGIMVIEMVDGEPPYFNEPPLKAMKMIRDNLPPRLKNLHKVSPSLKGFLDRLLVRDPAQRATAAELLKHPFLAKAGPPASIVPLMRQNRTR

The source of these data is the supplement of paper PMC11732987, “Enantioselective OTUD7B fragment discovery through chemoproteomics screening and high-throughput optimisation” (Communications Chemistry, 2025).

Compound in this assay: ClCC(=O)N[C@H]1CCCc2ccccc12
As to the kind of experiment: log2 mean competition ratio of IA-DTB cysteine labelling (DMSO/compound) (log2 ratio); higher = stronger cysteine engagement by compound. The following applies: 200 µM; treatment time: 4 h; cell line lysate: HEK293T. As to the method: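 IA-DTB competitive cysteine chemoproteomics in HEK293T RIPA lysate. Lysates were treated with compound 29 or 30 at 50 or 200 µM for 4 h, then IA-DTB (500 µM, 1 h), trypsin-digested, NeutrAvidin-enriched and analysed by diaPASEF. Competition ratio = intensity DMSO / intensity compound (n=4 treated, n=64 DMSO); binding: mean log2 CR ≥ 1 and p ≤ 0.05 plus QC filters. Target is the cysteine site.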
Turning to PCDH9 C401, the “log2 mean competition ratio” value was found to be 0.0919.
For PDP1 C132 (UniProt Q9P0J1), the “log2 mean competition ratio” value was -0.329.
Consider PHF12 C613 (UniProt Q96QT6), for which the “log2 mean competition ratio” value is -0.0147.
PARD6G C112: the “log2 mean competition ratio” value was found to be 0.294.
In the case of PAN2 C826 (UniProt Q504Q3) it was -0.307.
For the target PGM3 C200, the “log2 mean competition ratio” value was 0.176.
In the case of PARG C711 (UniProt Q86W56) it was -0.48; in that of PCBP4 C113, 0.0585.
In the case of PAXBP1 C870 (UniProt Q9Y5B6) it was -0.00275; in that of PAK4 C462 (UniProt O96013), 0.202.
